Measured values reported in US8663645B2, “Use of native peptides and their optimized derivatives for vaccination” (Vaxon Biotech, priority 2005, dated 2014).
Several values for one entry are separate records, joined by “and”; a condition that tells them apart may be missing. Equal values may be shown once. Part of at least one peptide drawing is inferred or uncertain, most often the ends. No end group written: not given here.

Tested on: EL4/HHD tumor cells
Experiment: In vivo tumor protection assay
Design: species or system HHD mice
Settings: individual mice; prime TERT572Y, boost the labelled peptide
Method: HHD mice were vaccinated with 100 μg of peptide emulsified in IFA in the presence of 150 μg of the 1 Ab restricted HBVcore128 epitope once and then again two weeks later. One week after the second vaccination they were challenged subcutaneously with 2×10^4 EL4/HHD cells. Survival was recorded every two days.
HHD mice were vaccinated with the optimized cryptic TERT572Y and TERT988Y peptides and fifteen days later boosted with either the same optimized or the corresponding native cryptic peptide. Ten days after the boost, mice were challenged with EL4/HHD tumor cells and monitored for tumor growth and survival. Mice primed and boosted with the gp100154 peptide were used as negative controls (Table 8). 100% of control mice died by day 43 post-challenge.

## YLFFYRKSV [TERT572Y, YLFFYRKSV]
  Survival post-challenge: 31 days and 40 days (3×) and 45 days
  Survival post-challenge (days): 200+ days
